Reference: article PMC6956818, “Activation of JNK and p38 MAPK Mediated by ZDHHC17 Drives Glioblastoma Multiforme Development and Malignant Progression” (Theranostics, 2020)

Target: GFP-p38
Assay: co-IP; GFP-JNK1 (or GFP-p38) and FLAG-MAP2K4 in HEK293 cells, with or without Myc-ZDHHC17; IP of JNK1 (or p38), MAP2K4 detected

B1: Flag-MAP2K4 (protein, UniProt P45985 1-399)
chain: MAAPSPSGGGGSGGGSGSGTPGPVGSPAPGHPAVSSMQGKRKALKLNFANPPFKSTARFTLNPNPTGVQNPHIERLRTHSIESSGKLKISPEQHWDFTAEDLKDLGEIGRGAYGSVNKMVHKPSGQIMAVKRIRSTVDEKEQKQLLMDLDVVMRSSDCPYIVQFYGALFREGDCWICMELMSTSFDKFYKYVYSVLDDVIPEEILGKITLATVKALNHLKENLKIIHRDIKPSNILLDRSGNIKLCDFGISGQLVDSIAKTRDAGCRPYMAPERIDPSASRQGYDVRSDVWSLGITLYELATGRFPYPKWNSVFDQLTQVVKGDPPQLSNSEEREFSPSFINFVNLCLTKDESKRPKYKELLKHPFILMYEERAVEVACYVCKILDQMPATPSSPMYVD
binding: binds

These are yes or no findings as the source states them, for the method shown. Binding seen in cells or lysates may run through a third protein. Binding can be weak; no strength is given. Sequences can lack the tags named with a protein.
